The record followed here is the supplement of paper PMC11546906.

Structures can show the parent of a compound that is named as a salt. The list shows a part of the results. Repeats in this data set agree poorly, so a single value says little.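 FDA-approved drugs were each paired with colistin at one-eighth its MIC and screened against a multidrug-resistant, mcr-1-positive clinical E. coli isolate, with OD600 read after 24 h. Drug-free bacteria served as growth control, plain broth as blank. Combinations were active if OD600 dropped below 0.2.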

The subject of this test is Escherichia coli 42 (mcr-1-positive clinical isolate). As to the kind of experiment: OD600 after 24 h growth with compound plus colistin (absorbance units (OD600)); higher = more bacterial growth (less inhibition). The conditions noted are these: first compound 25 µM; colistin concentration 0.5 ug/mL; incubation time 24 h; 37 °C.
Take `Cc1cc(/C=C/C#N)cc(C)c1Nc1ccnc(Nc2ccc(C#N)cc2)n1` [Rilpivirine] + CCC(C)CCCC(=O)N[C@@H](CCN)C(=O)N[C@H](C(=O)N[C@@H](CCN)C(=O)N[C@H]1CCNC(=O)[C@H]([C@@H](C)O)NC(=O)[C@H](CCN)NC(=O)[C@H](CCN)NC(=O)[C@H](CC(C)C)NC(=O)[C@@H](CC(C)C)NC(=O)[C@H](CCN)NC1=O)[C@@H](C)O [colistin]: the OD600 is inactive: 1.03. The result for `CCC1(c2ccccc2)C(=O)NCNC1=O` [Primidone] + CCC(C)CCCC(=O)N[C@@H](CCN)C(=O)N[C@H](C(=O)N[C@@H](CCN)C(=O)N[C@H]1CCNC(=O)[C@H]([C@@H](C)O)NC(=O)[C@H](CCN)NC(=O)[C@H](CCN)NC(=O)[C@H](CC(C)C)NC(=O)[C@@H](CC(C)C)NC(=O)[C@H](CCN)NC1=O)[C@@H](C)O [colistin] reads inactive: 0.893; that for `Cc1cn([C@@H]2C[C@@H](O)[C@H](CO)O2)c(=O)[nH]c1=O` [Telbivudine] + CCC(C)CCCC(=O)N[C@@H](CCN)C(=O)N[C@H](C(=O)N[C@@H](CCN)C(=O)N[C@H]1CCNC(=O)[C@H]([C@@H](C)O)NC(=O)[C@H](CCN)NC(=O)[C@H](CCN)NC(=O)[C@H](CC(C)C)NC(=O)[C@@H](CC(C)C)NC(=O)[C@H](CCN)NC1=O)[C@@H](C)O [colistin], inactive: 1.05.

`Cc1ccc(/C(=C\CN2CCCC2)c2ccccn2)cc1` [Triprolidine hydrochloride monohydrate] + CCC(C)CCCC(=O)N[C@@H](CCN)C(=O)N[C@H](C(=O)N[C@@H](CCN)C(=O)N[C@H]1CCNC(=O)[C@H]([C@@H](C)O)NC(=O)[C@H](CCN)NC(=O)[C@H](CCN)NC(=O)[C@H](CC(C)C)NC(=O)[C@@H](CC(C)C)NC(=O)[C@H](CCN)NC1=O)[C@@H](C)O [colistin]: the OD600 is inactive: 1.15. The value for `C=CC[N+]1([C@H]2C[C@H]3[C@@H]4CC[C@H]5C[C@H](O)[C@@H](N6CCOCC6)C[C@]5(C)[C@H]4CC[C@]3(C)[C@H]2OC(C)=O)CCCC1` [Rocuronium bromide] + CCC(C)CCCC(=O)N[C@@H](CCN)C(=O)N[C@H](C(=O)N[C@@H](CCN)C(=O)N[C@H]1CCNC(=O)[C@H]([C@@H](C)O)NC(=O)[C@H](CCN)NC(=O)[C@H](CCN)NC(=O)[C@H](CC(C)C)NC(=O)[C@@H](CC(C)C)NC(=O)[C@H](CCN)NC1=O)[C@@H](C)O [colistin] was inactive: 0.941; that for `CCCCc1oc2ccc(NS(C)(=O)=O)cc2c1C(=O)c1ccc(OCCCN(CCCC)CCCC)cc1` [Dronedarone hydrochloride] + CCC(C)CCCC(=O)N[C@@H](CCN)C(=O)N[C@H](C(=O)N[C@@H](CCN)C(=O)N[C@H]1CCNC(=O)[C@H]([C@@H](C)O)NC(=O)[C@H](CCN)NC(=O)[C@H](CCN)NC(=O)[C@H](CC(C)C)NC(=O)[C@@H](CC(C)C)NC(=O)[C@H](CCN)NC1=O)[C@@H](C)O [colistin] was inactive: 0.93. The value for `O=C(O)c1cc(/N=N/c2ccc(S(=O)(=O)Nc3ccccn3)cc2)ccc1O` [Sulfasalazine] + CCC(C)CCCC(=O)N[C@@H](CCN)C(=O)N[C@H](C(=O)N[C@@H](CCN)C(=O)N[C@H]1CCNC(=O)[C@H]([C@@H](C)O)NC(=O)[C@H](CCN)NC(=O)[C@H](CCN)NC(=O)[C@H](CC(C)C)NC(=O)[C@@H](CC(C)C)NC(=O)[C@H](CCN)NC1=O)[C@@H](C)O [colistin] was inactive: 1.07; that for `COc1cc(C(C)=O)ccc1OCCCN1CCC(c2noc3cc(F)ccc23)CC1` [Iloperidone] + CCC(C)CCCC(=O)N[C@@H](CCN)C(=O)N[C@H](C(=O)N[C@@H](CCN)C(=O)N[C@H]1CCNC(=O)[C@H]([C@@H](C)O)NC(=O)[C@H](CCN)NC(=O)[C@H](CCN)NC(=O)[C@H](CC(C)C)NC(=O)[C@@H](CC(C)C)NC(=O)[C@H](CCN)NC1=O)[C@@H](C)O [colistin] was inactive: 1.16; that for `NC[C@H](O)c1ccc(O)c(O)c1` [Noradrenaline bitartrate] + CCC(C)CCCC(=O)N[C@@H](CCN)C(=O)N[C@H](C(=O)N[C@@H](CCN)C(=O)N[C@H]1CCNC(=O)[C@H]([C@@H](C)O)NC(=O)[C@H](CCN)NC(=O)[C@H](CCN)NC(=O)[C@H](CC(C)C)NC(=O)[C@@H](CC(C)C)NC(=O)[C@H](CCN)NC1=O)[C@@H](C)O [colistin] was inactive: 0.919. The value for `CCCCCNC(=N)N/N=C/c1c[nH]c2ccc(OC)cc12` [Tegaserod maleate] + CCC(C)CCCC(=O)N[C@@H](CCN)C(=O)N[C@H](C(=O)N[C@@H](CCN)C(=O)N[C@H]1CCNC(=O)[C@H]([C@@H](C)O)NC(=O)[C@H](CCN)NC(=O)[C@H](CCN)NC(=O)[C@H](CC(C)C)NC(=O)[C@@H](CC(C)C)NC(=O)[C@H](CCN)NC1=O)[C@@H](C)O [colistin] was inactive: 1.02. In the case of `O=C(O)c1cccnc1` [Niacin] + CCC(C)CCCC(=O)N[C@@H](CCN)C(=O)N[C@H](C(=O)N[C@@H](CCN)C(=O)N[C@H]1CCNC(=O)[C@H]([C@@H](C)O)NC(=O)[C@H](CCN)NC(=O)[C@H](CCN)NC(=O)[C@H](CC(C)C)NC(=O)[C@@H](CC(C)C)NC(=O)[C@H](CCN)NC1=O)[C@@H](C)O [colistin], the OD600 was inactive: 1.12.

Regarding `O=C(O)Cc1ccccc1Nc1c(Cl)cccc1Cl` [Diclofenac] + CCC(C)CCCC(=O)N[C@@H](CCN)C(=O)N[C@H](C(=O)N[C@@H](CCN)C(=O)N[C@H]1CCNC(=O)[C@H]([C@@H](C)O)NC(=O)[C@H](CCN)NC(=O)[C@H](CCN)NC(=O)[C@H](CC(C)C)NC(=O)[C@@H](CC(C)C)NC(=O)[C@H](CCN)NC1=O)[C@@H](C)O [colistin], the OD600 was inactive: 0.916. For `CN(C)CCOC(c1ccccc1)c1ccccc1.Cn1c(=O)c2[nH]c(Cl)nc2n(C)c1=O` [Dimenhydrinate] + CCC(C)CCCC(=O)N[C@@H](CCN)C(=O)N[C@H](C(=O)N[C@@H](CCN)C(=O)N[C@H]1CCNC(=O)[C@H]([C@@H](C)O)NC(=O)[C@H](CCN)NC(=O)[C@H](CCN)NC(=O)[C@H](CC(C)C)NC(=O)[C@@H](CC(C)C)NC(=O)[C@H](CCN)NC1=O)[C@@H](C)O [colistin], the OD600 is inactive: 0.942. The value for `CC[C@H]1OC(=O)[C@H](C)[C@@H](O[C@H]2C[C@@](C)(OC)[C@@H](O)[C@H](C)O2)[C@H](C)[C@@H](O[C@@H]2O[C@H](C)C[C@H](N(C)C)[C@H]2O)[C@](C)(O)C[C@@H](C)[C@@H]2N[C@@H](COCCOC)O[C@H]([C@H]2C)[C@]1(C)O` [Dirithromycin] + CCC(C)CCCC(=O)N[C@@H](CCN)C(=O)N[C@H](C(=O)N[C@@H](CCN)C(=O)N[C@H]1CCNC(=O)[C@H]([C@@H](C)O)NC(=O)[C@H](CCN)NC(=O)[C@H](CCN)NC(=O)[C@H](CC(C)C)NC(=O)[C@@H](CC(C)C)NC(=O)[C@H](CCN)NC1=O)[C@@H](C)O [colistin] was active: 0.036; that for `CCCS(=O)(=O)Nc1ccc(F)c(C(=O)c2c[nH]c3ncc(-c4ccc(Cl)cc4)cc23)c1F` [Vemurafenib] + CCC(C)CCCC(=O)N[C@@H](CCN)C(=O)N[C@H](C(=O)N[C@@H](CCN)C(=O)N[C@H]1CCNC(=O)[C@H]([C@@H](C)O)NC(=O)[C@H](CCN)NC(=O)[C@H](CCN)NC(=O)[C@H](CC(C)C)NC(=O)[C@@H](CC(C)C)NC(=O)[C@H](CCN)NC1=O)[C@@H](C)O [colistin] was inactive: 0.991; that for `CCCCC1=NC2(CCCC2)C(=O)N1Cc1ccc(-c2ccccc2-c2nnn[nH]2)cc1` [Irbesartan] + CCC(C)CCCC(=O)N[C@@H](CCN)C(=O)N[C@H](C(=O)N[C@@H](CCN)C(=O)N[C@H]1CCNC(=O)[C@H]([C@@H](C)O)NC(=O)[C@H](CCN)NC(=O)[C@H](CCN)NC(=O)[C@H](CC(C)C)NC(=O)[C@@H](CC(C)C)NC(=O)[C@H](CCN)NC1=O)[C@@H](C)O [colistin] was inactive: 0.784. In the case of `COc1ccc2c(c1)c(CC(=O)O)c(C)n2C(=O)c1ccc(Cl)cc1` [Indomethacin] + CCC(C)CCCC(=O)N[C@@H](CCN)C(=O)N[C@H](C(=O)N[C@@H](CCN)C(=O)N[C@H]1CCNC(=O)[C@H]([C@@H](C)O)NC(=O)[C@H](CCN)NC(=O)[C@H](CCN)NC(=O)[C@H](CC(C)C)NC(=O)[C@@H](CC(C)C)NC(=O)[C@H](CCN)NC1=O)[C@@H](C)O [colistin], the OD600 was inactive: 0.941. The result for `CN1C(C(=O)Nc2ccccn2)=C(O)c2ccccc2S1(=O)=O` [Piroxicam] + CCC(C)CCCC(=O)N[C@@H](CCN)C(=O)N[C@H](C(=O)N[C@@H](CCN)C(=O)N[C@H]1CCNC(=O)[C@H]([C@@H](C)O)NC(=O)[C@H](CCN)NC(=O)[C@H](CCN)NC(=O)[C@H](CC(C)C)NC(=O)[C@@H](CC(C)C)NC(=O)[C@H](CCN)NC1=O)[C@@H](C)O [colistin] reads inactive: 1.14; that for `COc1cc2nc(N(C)CCCNC(=O)C3CCCO3)nc(N)c2cc1OC` (centres undefined) [Alfuzosin hydrochloride] + CCC(C)CCCC(=O)N[C@@H](CCN)C(=O)N[C@H](C(=O)N[C@@H](CCN)C(=O)N[C@H]1CCNC(=O)[C@H]([C@@H](C)O)NC(=O)[C@H](CCN)NC(=O)[C@H](CCN)NC(=O)[C@H](CC(C)C)NC(=O)[C@@H](CC(C)C)NC(=O)[C@H](CCN)NC1=O)[C@@H](C)O [colistin], inactive: 1.09.
